{"source": "PubChem BioAssay AID743454 (Peter MacCallum Cancer Centre, 2014)", "aim": "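Genes whose loss kills vorinostat-resistant colon cancer cells under vorinostat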 (primary screen)", "cells": "human HCT116-VR colon cancer cells, selected for vorinostat resistance", "reagent": "siRNA pool against human genes, 40 nM siRNA pool", "timing": "vorinostat for 24 h, read-out about 72 h after transfection", "conditions": "vorinostat at 2.5 µM final", "measured": "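Two measures, CellTiter-Fluor viability and luminescent caspase 3/7 activity, each as fold change against same-plate mock wells, mean of duplicates, then screen-wide robust z-score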", "direction": "viability robust z-score: higher = more viable cells than screen typical; caspase robust z-score: higher = more caspase 3/7 activity than screen typical", "active means": "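a knock-down is a hit when classed RV1 or RV2 for lowered viability, or CA1 or CA2 for caspase activation; those lethal without drug were dropped; hits were retested singly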", "note": "Here is one part, drawn at random, of about 18,000 deposited reagents. 450 of them (2.5%) count as active. 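Single biological run; no consistent viability z cut-off exists, so the class columns, not z-scores, define the calls.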 Entries without a mark were called inactive."}
{"target": "KANSL1", "viability hit class": "no change", "caspase hit class": "no change", "viability robust z-score": -1.01, "caspase robust z-score": 1.25}
{"target": "CCL15", "viability hit class": "no change", "caspase hit class": "no change", "viability robust z-score": -0.04, "caspase robust z-score": 0.05}
{"target": "ACTR10", "viability hit class": "no change", "caspase hit class": "no change", "viability robust z-score": -0.68, "caspase robust z-score": -0.44}
{"target": "ARHGAP20", "viability hit class": "no change", "caspase hit class": "no change", "viability robust z-score": -1.66, "caspase robust z-score": 2.88}
{"target": "CATIP", "viability hit class": "no change", "caspase hit class": "no change", "viability robust z-score": -0.12, "caspase robust z-score": -0.94}
{"target": "ADGRL4", "viability hit class": "no change", "caspase hit class": "no change", "viability robust z-score": -0.72, "caspase robust z-score": -0.08}

Records above whose target name begins with C or c (2):
{"target": "CCL15", "viability hit class": "no change", "caspase hit class": "no change", "viability robust z-score": -0.04, "caspase robust z-score": 0.05}
{"target": "CATIP", "viability hit class": "no change", "caspase hit class": "no change", "viability robust z-score": -0.12, "caspase robust z-score": -0.94}

Next entries follow:
{"target": "ORAI1", "viability hit class": "no change", "caspase hit class": "no change", "viability robust z-score": 0.09, "caspase robust z-score": 0.28}
{"target": "ADGRB3", "viability hit class": "no change", "caspase hit class": "no change", "viability robust z-score": -0.32, "caspase robust z-score": 1.28}
{"target": "MELK", "viability hit class": "no change", "caspase hit class": "no change", "viability robust z-score": 0.73, "caspase robust z-score": -0.1}
{"target": "ZNF200", "viability hit class": "no change", "caspase hit class": "no change", "viability robust z-score": -0.1, "caspase robust z-score": 2.69}
{"target": "C16orf82", "viability hit class": "no change", "caspase hit class": "no change", "viability robust z-score": 1.27, "caspase robust z-score": -0.12}
{"target": "SRA1", "viability hit class": "no change", "caspase hit class": "no change", "viability robust z-score": -0.62, "caspase robust z-score": 3.24}
{"target": "MMP2", "viability hit class": "no change", "caspase hit class": "no change", "viability robust z-score": 0.75, "caspase robust z-score": -0.66}
{"target": "GPR52", "viability hit class": "no change", "caspase hit class": "no change", "viability robust z-score": 1.15, "caspase robust z-score": -0.2}
